Assay results from article PMC12670160, “A drug-repurposing screen of FDA- and EMA-approved drugs identifies two NF-κB inhibitors active against eumycetoma” (Journal of Antimicrobial Chemotherapy, 2025).
Counter-ions that a name gives are not always drawn. Like-named read-outs stand apart in the source and are kept apart here. Hit rate of the full screen: of about 5,300 compounds, about 130 (2.5%) showed an effect of 50% or more. This is one part of the list. Numbered stars: 1 amine (or outer) side, 2 acyl side, 3 side chain; on linkers, the order of the positions; unused ones are H or OH. Bridge positions count the residues as written; N and C are the ends. Square brackets hold non-standard residues; d marks the D form. Peptide text beside a SMILES is read from it. I, II: the chains in the order shown. Actinocin(9to1) = Cc1c2oc3c(C)ccc(C(=O)[*:1])c3nc-2c(C(=O)[*:2])c(N)c1=O; NMeV = CN[C@H](C(=O)O)C(C)C; Sar = CNCC(=O)O

Tested on: M. mycetomatis strain mm55
Settings: primary screen, metabolic activity vs growth control, 96 h, 2 µM, inhibitor

SMILES	% viability	% viability (Madurella mycetomatis metabolic activity at 2µM (%))
c1cnc2cc3c(cc2n1)C1CNCC3C1 [ONC0004813, varenicline tartrate]	83.4%	
NC[C@H]1O[C@H](O[C@H]2[C@H](O)[C@@H](O[C@H]3O[C@H](CO)[C@@H](O)[C@H](N)[C@H]3O)[C@H](N)C[C@@H]2N)[C@H](O)[C@@H](O)[C@@H]1O [ONC0000609, kanamycin a sulfate]	72.35%	
C[C@H](Oc1ccc(S(C)(=O)=O)cc1C(=O)N1CCN(c2ncc(C(F)(F)F)cc2F)CC1)C(F)(F)F [ONC0002052, bitopertin]	75.15%	
O=c1cc(-c2ccccc2)oc2cc(O)cc(O)c12 [ONC0005085, chrysin]	86.86%	
COc1ccc2c(c1)c(C1=C(c3c[nH]c4ccccc34)C(=O)NC1=O)cn2CCCN(C)C [ONC0004541, go 6983]	67.37%	
Oc1cc(O)cc(O)c1 [ONC0003870, phloroglucin]	78.3%	
Cc1c2oc3c(C)ccc(C(=O)N[C@@H]4C(=O)N[C@H](C(C)C)C(=O)N5CCC[C@H]5C(=O)N(C)CC(=O)N(C)[C@@H](C(C)C)C(=O)O[C@@H]4C)c3nc-2c(C(=O)N[C@@H]2C(=O)N[C@H](C(C)C)C(=O)N3CCC[C@H]3C(=O)N(C)CC(=O)N(C)[C@@H](C(C)C)C(=O)O[C@@H]2C)c(N)c1=O [ONC0003335, dactinomycin] (I: T[dV]P[Sar][NMeV] / II: T[dV]P[Sar][NMeV]; ester I:1-I:C, II:1-II:C; linker I:N-II:N via Actinocin(9to1))		81.45%
O=c1sn(-c2cccc3ccccc23)c(=O)n1Cc1ccccc1 [ONC0005020, tideglusib]	111.3%	
Cc1noc(-c2ccc(-c3ccc(CC(=O)O)cc3)cc2)c1NC(=O)O[C@H](C)c1ccccc1 [ONC0002098, am095]	63.96%	
Nc1c2c(nc3ccccc13)CCCC2 [ONC0005283, tacrine hydrochloride]	70.06%	
Cn1cc(C[C@@H](N)C(=O)O)c2ccccc21 [ONC0003940, indoximod]	84.46%	
C/C(=C(\CCOP(=O)(O)O)SC(=O)c1ccccc1)N(C=O)Cc1cnc(C)nc1N [ONC0002833, benfotiamine]	112.3%	
CC(C)=CCC/C(C)=C/CC/C(C)=C/CCC(O)OC/C=C(\C)CCC=C(C)C (stereo not drawn) [ONC0000430, geranylfarnesylacetate gefarnate]	66.04%	
CC(C)(C)C(=O)OCC(=O)[C@H]1CC[C@H]2[C@@H]3CCC4=CC(=O)CC[C@]4(C)[C@H]3CC[C@]12C [ONC0002988, desoxycorticosteronepivalate]	86.89%	
CC(=O)c1c(O)c(C)c(O)c2c1OC1=CC(=O)C(C(C)=O)C(=O)[C@@]12C (stereo partly drawn) [ONC0004971, usniacin dusnic acid]	81.71%	
Cc1cccc(-c2n[nH]cc2-c2ccc(F)c(-c3cnn(CCO)c3)c2)n1 [ONC0003583, r268712]	110.6%	
COc1ccc(CN2CCNCC2)c(OC)c1OC [ONC0005391, trimetazidine dihydrochloride]	101.6%	
O=C(CCCCCN1C(=O)c2cccc3cccc(c23)C1=O)NO [ONC0003573, scriptaid]	108.4%	
C=C[C@@]1(C)CC(=O)[C@]2(O)[C@@]3(C)[C@@H](O)CCC(C)(C)[C@@H]3[C@H](O)[C@H](OC(C)=O)[C@@]2(C)O1 [ONC0000047, forskolin]	87.43%	
CCN(CC)C(=S)SSC(=S)N(CC)CC [ONC0000627, disulfiram]	104.4%	
Cc1cc(OCCCS(C)(=O)=O)cc(C)c1-c1cccc(COc2ccc3c(c2)OC[C@H]3CC(=O)O)c1 [ONC0004585, tak875]	77.97%	
COc1cc(CCc2cc(NC(=O)c3ccc(N4C[C@@H](C)N[C@@H](C)C4)cc3)n[nH]2)cc(OC)c1 [ONC0005224, azd4547]	125.2%	
O=C(N[C@H]1CN2CCC1CC2)c1c[nH]c2ccsc2c1=O [ONC0005516, pumosetrag]	106.8%	
CCC(=N\O)/C(C)=C/c1ccc(F)cc1 [ONC0004368, a967079]	160.4%	
CC1(C)S[C@@H]2[C@H](NC(=O)C(C(=O)O)c3ccccc3)C(=O)N2[C@H]1C(=O)O (stereo partly drawn) [ONC0000762, carbenicillin disodium]	63.52%	
COc1ccc(-c2nc(-c3ccc(-c4cccc(Cl)c4)o3)[nH]c2-c2ccc(OC)cc2)cc1 [ONC0000825, neurodazine]	67.04%	
COC(=O)N[C@H](C(=O)N1CCC[C@H]1c1nc(-c2ccc(-c3ccc(-c4c[nH]c([C@@H]5CCCN5C(=O)[C@@H](NC(=O)OC)C(C)C)n4)cc3)cc2)c[nH]1)C(C)C [ONC0004614, daclatasvir bms790052]	88.33%	

Three compounds from above, sorted by length of the SMILES, low to high.
SMILES	% viability	% viability (Madurella mycetomatis metabolic activity at 2µM (%))
Cn1cc(C[C@@H](N)C(=O)O)c2ccccc21 [ONC0003940, indoximod]	84.46%	
COc1ccc(-c2nc(-c3ccc(-c4cccc(Cl)c4)o3)[nH]c2-c2ccc(OC)cc2)cc1 [ONC0000825, neurodazine]	67.04%	
Cc1cc(OCCCS(C)(=O)=O)cc(C)c1-c1cccc(COc2ccc3c(c2)OC[C@H]3CC(=O)O)c1 [ONC0004585, tak875]	77.97%	

(continued)

SMILES	% viability	% viability (Madurella mycetomatis metabolic activity at 2µM (%))
NC(=O)N1C(=O)/C(=C(\O)c2cccs2)c2cc(Cl)ccc21 [ONC0001359, tenidap]	90.53%	
CCN(CC)CCOC(=O)C(Cc1cccc2ccccc12)CC1CCCO1 (stereo not drawn) [ONC0002388, nafronyl oxalate]	125.3%	
C[C@H](N)[C@H](O)c1cccc(O)c1 [ONC0003110, metaraminol bitartrate]	76.38%	
COC(=O)c1ccccc1NC(=O)c1ccc(F)cc1 [ONC0000191, exo1]	65.33%	
CC(C)N(CCCNC(=O)Nc1ccc(C(C)(C)C)cc1)C[C@H]1O[C@@H](n2cc(Br)c3c(N)ncnc32)[C@H](O)[C@@H]1O [ONC0004320, sgc 0946]	83.24%	
COc1ccc(-c2csc(NC(=O)[C@H]3CCCCN3S(=O)(=O)c3ccc(C)cc3)n2)cc1 [ONC0002773, ml277]	70.28%	
CC1=C(CC(=O)O)c2cc(F)ccc2/C1=C\c1ccc(S(C)(=O)=O)cc1 [ONC0003310, exisulind]	74.23%	
CCCCc1nc2ccn(CC(=O)N(C)C)c(=O)c2n1Cc1ccc(-c2ccccc2-c2nnn[nH]2)cc1 [ONC0001732, emd66684]	80.28%	
CS(=O)(=O)c1ccc(-c2cc(Br)sc2-c2ccc(F)cc2)cc1 [ONC0001581, dup697]	84.54%	
O=C1CN(/N=C/c2ccc([N+](=O)[O-])o2)C(=O)N1 [ONC0000476, nitrofurantoin]	64.94%	
c1ccc2c(c1)CN1CCCC1=N2 [ONC0003505, desoxypeganine]	51.7%	
Cc1ccccc1OCC(O)CO (stereo not drawn) [ONC0000654, mephenesin]	110.3%	
C[C@H]1[C@H](C)CC[C@]2(C(=O)O)CC[C@]3(C)C(=CC[C@@H]4[C@@]5(C)C[C@@H](O)[C@H](O)C(C)(C)[C@@H]5CC[C@]43C)[C@H]12 [ONC0001060, corosolic acid]	51.55%	
CC(C)(C)C(=O)C(Oc1ccc(Cl)cc1)n1ccnc1 (stereo not drawn) [ONC0004273, climbazole]	94.51%	
Cc1cc(C(=CNc2ccc(Cl)cc2)C(=O)Nc2ccc(Cl)cc2)on1 [ONC0000028, ccmi]	80.11%	
Cc1nc2sccn2c(=O)c1CCN1CCC(=C(c2ccccc2)c2ccc(F)cc2)CC1 [ONC0000077, r59022]	101.8%	
CN[C@@H]1[C@@H](O)[C@@H](O[C@@H]2[C@@H](O)[C@H](O[C@H]3OC(CN)=CC[C@H]3N)[C@@H](N)C[C@H]2N)OC[C@]1(C)O [ONC0000954, sisomicin sulfate]	75.58%	
COc1cc(OC)cc(C(=O)NNC(=O)Nc2cccc3ccccc23)c1 [ONC0001582, tco9311]	89.25%	
O=C(N[C@H]1CN2CCC1CC2)c1ccc(Cl)cc1 [ONC0001339, pnu282987]	105.8%	
CN[C@H]1C(=O)N[C@@H]2Cc3ccc(cc3)Oc3cc4cc(c3O[C@@H]3O[C@H](C(=O)O)[C@@H](O)[C@H](O)[C@H]3NC(=O)CCCCCCCCC(C)C)Oc3ccc(cc3Cl)[C@@H](O)[C@@H]3NC(=O)[C@H](NC(=O)[C@@H]4NC(=O)[C@@H](NC2=O)c2cc(cc(O)c2Cl)Oc2cc1ccc2O)c1ccc(O)c(c1)-c1c(O[C@H]2O[C@H](CO)[C@@H](O)[C@H](O)[C@@H]2O)cc(O)cc1[C@@H](C(=O)NCCCN(C)C)NC3=O [ONC0002203, dalbavancin]	90.32%	
N#Cc1c(N)nc(SCc2ncc[nH]2)c(C#N)c1-c1ccc(O)cc1 [ONC0002651, luf5834]	74.61%	
O=C(O)c1ccccc1Nc1cc(Cl)ccc1C(=O)O [ONC0003876, lobenzarit disodium]	86.47%	
CC1(O)CCC(C(C)(C)O)CC1 (stereo not drawn) [ONC0005315, terpene hydrate]	59.84%	
COc1cc(N2CCC(N)CC2)ccc1Nc1ncc(Cl)c(-c2c[nH]c3ccccc23)n1 [ONC0005125, azd3463]	85.95%	
N#Cc1ccc(N2CCN(C(=O)COc3ccc4[nH]cc(CCN)c4c3)CC2)cc1 [ONC0001933, donitriptan]	109.4%	
CC(C)[C@H]1c2ccc(F)cc2CC[C@@]1(CCN(C)CCCc1nc2ccccc2[nH]1)OC(=O)C1CC1 [ONC0001331, nnc550396]	118%	
COc1cc(O)c2c(c1)C(=O)c1cc(C)cc(O)c1C2=O [ONC0004501, rheochrysidin physcione]	41.39%	
